Test results as given in paper PMC11837641.

Chains of the proteins cited; added tags and fusions are not shown. Lines headed by an entry give the natural chain unless they say otherwise; changes in a name come on top.
UniProt Q9H239: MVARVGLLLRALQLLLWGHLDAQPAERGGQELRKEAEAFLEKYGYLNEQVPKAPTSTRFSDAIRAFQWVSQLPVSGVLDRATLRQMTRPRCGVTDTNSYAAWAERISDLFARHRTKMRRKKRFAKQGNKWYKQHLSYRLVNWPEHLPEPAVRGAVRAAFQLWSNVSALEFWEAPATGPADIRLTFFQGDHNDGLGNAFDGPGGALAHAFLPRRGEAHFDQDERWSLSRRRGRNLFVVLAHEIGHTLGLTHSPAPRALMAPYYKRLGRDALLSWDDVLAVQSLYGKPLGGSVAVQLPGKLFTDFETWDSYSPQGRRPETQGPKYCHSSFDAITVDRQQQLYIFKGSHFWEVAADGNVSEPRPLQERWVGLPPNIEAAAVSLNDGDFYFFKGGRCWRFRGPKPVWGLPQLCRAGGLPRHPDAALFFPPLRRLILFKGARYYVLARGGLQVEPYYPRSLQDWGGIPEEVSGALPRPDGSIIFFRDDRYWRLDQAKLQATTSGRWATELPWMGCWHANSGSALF

B1: TLR7 (protein, UniProt Q9NYK1 27-1049)
chain: ARWFPKTLPCDVTLDVPKNHVIVDCTDKHLTEIPGGIPTNTTNLTLTINHIPDISPASFHRLDHLVEIDFRCNCVPIPLGSKNNMCIKRLQIKPRSFSGLTYLKSLYLDGNQLLEIPQGLPPSLQLLSLEANNIFSIRKENLTELANIEILYLGQNCYYRNPCYVSYSIEKDAFLNLTKLKVLSLKDNNVTAVPTVLPSTLTELYLYNNMIAKIQEDDFNNLNQLQILDLSGNCPRCYNAPFPCAPCKNNSPLQIPVNAFDALTELKVLRLHSNSLQHVPPRWFKNINKLQELDLSQNFLAKEIGDAKFLHFLPSLIQLDLSFNFELQVYRASMNLSQAFSSLKSLKILRIRGYVFKELKSFNLSPLHNLQNLEVLDLGTNFIKIANLSMFKQFKRLKVIDLSVNKISPSGDSSEVGFCSNARTSVESYEPQVLEQLHYFRYDKYARSCRFKNKEASFMSVNESCYKYGQTLDLSKNSIFFVKSSDFQHLSFLKCLNLSGNLISQTLNGSEFQPLAELRYLDFSNNRLDLLHSTAFEELHKLEVLDISSNSHYFQSEGITHMLNFTKNLKVLQKLMMNDNDISSSTSRTMESESLRTLEFRGNHLDVLWREGDNRYLQLFKNLLKLEELDISKNSLSFLPSGVFDGMPPNLKNLSLAKNGLKSFSWKKLQCLKNLETLDLSHNQLTTVPERLSNCSRSLKNLILKNNQIRSLTKYFLQDAFQLRYLDLSSNKIQMIQKTSFPENVLNNLKMLLLHHNRFLCTCDAVWFVWWVNHTEVTIPYLATDVTCVGPGAHKGQSVISLDLYTCELDLTNLILFSLSISVSLFLMVMMTASHLYFWDVWYIYHFCKAKIKGYQRLISPDCCYDAFIVYDTKDPAVTEWVLAELVAKLEDPREKHFNLCLEERDWLPGQPVLENLSQSIQLSKKTVFVMTDKYAKTENFKIAFYLSHQRLMDEKVDVIILIFLEKPFQKSKFLQLRKRLCGSSVLEWPTNPQAHPYFWQCLKNALATDNHVAYSQVFKETV
B2: SLC12A2 (protein, UniProt P55011 1-1212)
chain: MEPRPTAPSSGAPGLAGVGETPSAAALAAARVELPGTAVPSVPEDAAPASRDGGGVRDEGPAAAGDGLGRPLGPTPSQSRFQVDLVSENAGRAAAAAAAAAAAAAAAGAGAGAKQTPADGEASGESEPAKGSEEAKGRFRVNFVDPAASSSAEDSLSDAAGVGVDGPNVSFQNGGDTVLSEGSSLHSGGGGGSGHHQHYYYDTHTNTYYLRTFGHNTMDAVPRIDHYRHTAAQLGEKLLRPSLAELHDELEKEPFEDGFANGEESTPTRDAVVTYTAESKGVVKFGWIKGVLVRCMLNIWGVMLFIRLSWIVGQAGIGLSVLVIMMATVVTTITGLSTSAIATNGFVRGGGAYYLISRSLGPEFGGAIGLIFAFANAVAVAMYVVGFAETVVELLKEHSILMIDEINDIRIIGAITVVILLGISVAGMEWEAKAQIVLLVILLLAIGDFVIGTFIPLESKKPKGFFGYKSEIFNENFGPDFREEETFFSVFAIFFPAATGILAGANISGDLADPQSAIPKGTLLAILITTLVYVGIAVSVGSCVVRDATGNVNDTIVTELTNCTSAACKLNFDFSSCESSPCSYGLMNNFQVMSMVSGFTPLISAGIFSATLSSALASLVSAPKIFQALCKDNIYPAFQMFAKGYGKNNEPLRGYILTFLIALGFILIAELNVIAPIISNFFLASYALINFSVFHASLAKSPGWRPAFKYYNMWISLLGAILCCIVMFVINWWAALLTYVIVLGLYIYVTYKKPDVNWGSSTQALTYLNALQHSIRLSGVEDHVKNFRPQCLVMTGAPNSRPALLHLVHDFTKNVGLMICGHVHMGPRRQAMKEMSIDQAKYQRWLIKNKMKAFYAPVHADDLREGAQYLMQAAGLGRMKPNTLVLGFKKDWLQADMRDVDMYINLFHDAFDIQYGVVVIRLKEGLDISHLQGQEELLSSQEKSPGTKDVVVSVEYSKKSDLDTSKPLSEKPITHKVEEEDGKTATQPLLKKESKGPIVPLNVADQKLLEASTQFQKKQGKNTIDVWWLFDDGGLTLLIPYLLTTKKKWKDCKIRVFIGGKINRIDHDRRAMATLLSKFRIDFSDIMVLGDINTKPKKENIIAFEEIIEPYRLHEDDKEQDIADKMKEDEPWRITDNELELYKTKTYRQIRLNELLKEHSSTANIIVMSLPVARKGAVSSALYMAWLEALSKDLPPILLVRGNHQSVLTFYS
B3: C6orf15 (protein, UniProt Q6UXA7 27-325)
chain: RSIGVVEEKVSQNLGTNLPQLGQPSSTGPSNSEHPQPALDPRSNDLARVPLKLSVPASDGFPPAGGSAVQRWPPSWGLPAMDSWPPEDPWQMMAAAAEDRLGEALPEELSYLSSAAALAPGSGPLPGESSPDATGLSPKASLLHQDSESRRLPRSNSLGAGGKILSQRPPWSLIHRVLPDHPWGTLNPSVSWGGGGPGTGWGTRPMPHPEGIWGINNQPPGTSWGNINRYPGGSWGNINRYPGGSWGNINRYPGGSWGNIHLYPGINNPFPPGVLRPPGSSWNIPAGFPNPPSPRLQWG
B4: AP4S1 (protein, UniProt Q9Y587 1-144)
chain: MIKFFLMVNKQGQTRLSKYYEHVDINKRTLLETEVIKSCLSRSNEQCSFIEYKDFKLIYRQYAALFIVVGVNDTENEMAIYEFIHNFVEVLDEYFSRVSELDIMFNLDKVHIILDEMVLNGCIVETNRARILAPLLILDKMSES
B5: GOT2 (protein, UniProt P00505 30-430)
chain: SSWWTHVEMGPPDPILGVTEAFKRDTNSKKMNLGVGAYRDDNGKPYVLPSVRKAEAQIAAKNLDKEYLPIGGLAEFCKASAELALGENSEVLKSGRFVTVQTISGTGALRIGASFLQRFFKFSRDVFLPKPTWGNHTPIFRDAGMQLQGYRYYDPKTCGFDFTGAVEDISKIPEQSVLLLHACAHNPTGVDPRPEQWKEIATVVKKRNLFAFFDMAYQGFASGDGDKDAWAVRHFIEQGINVCLCQSYAKNMGLYGERVGAFTMVCKDADEAKRVESQLKILIRPMYSNPPLNGARIAAAILNTPDLRKQWLQEVKVMADRIIGMRTQLVSNLKKEGSTHNWQHITDQIGMFCFTGLKPEQVERLIKEFSIYMTKDGRISVAGVTSSNVGYLAHAIHQVTK
B6: RGS22 (protein, UniProt Q8NE09 1-1264)
chain: MPEKRLTAEPPTITEEEFEDSLATDDFLVDYFNEFLSLPTFSEAIRFNADYGVFEVANDAPQFLEKQLKKILQNQQPRNPIYDVVRKGKNEVKPVQMNAPDEDETINVNYNIMCLSREEGIKWIKKERLPAFLESDCYFEYRLAKLVSQVRWSKSGMNFTVGSNFSPWIVKKPPSLPPPATEEDNLVIMKKFYVSLGEASYTQTKDWFALAKQSQQTVSTFSLPCCVPYNKLKSPAISSVSENFIFDDGVHPRTKKDPSKTNKLISEFEEEEGEEEEVSVSLQDTPSQALLRVYLEKKQDVDESLTMHFSTCEEFLSSYIYFILRGAIQQIVGKPVGETPDYINFNNITKVSFDDCFESIHGKNFLSELVQTTKERSEEIEQTSLSSKNESAGPESRADWCISHRTYDIGNRKEFERFKKFIKGTLGERYWWLWMDIERLKVLKDPGRHQRHLEKMKKCYLVSNGDYYLSAEILSKFKLLDGSQWNEEHLRNIQSEVLKPLLLYWAPRFCVTHSASTKYASAELKFWHLRQAKPRKDIDPFPQMATLLPLRPKSCIPQIPEIQKEEFSLSQPPKSPNKSPEVKTATQKPWKRELLYPGSSKDDVIEKGSKYMSESSKVIHLTSFTDISECLKPQLDRRYAYTEEPRVKTVSDVGALGGSDMENLLQSLYVENRAGFFFTKFCEHSGNKLWKNSVYFWFDLQAYHQLFYQETLQPFKVCKQAQYLFATYVAPSATLDIGLQQEKKKEIYMKIQPPFEDLFDTAEEYILLLLLEPWTKMVKSDQIAYKKVELVEETRQLDSTYFRKLQALHKETFSKKAEDTTCEIGTGILSLSNVSKRTEYWDNVPAEYKHFKFSDLLNNKLEFEHFRQFLETHSSSMDLMCWTDIEQFRRITYRDRNQRKAKSIYIKNKYLNKKYFFGPNSPASLYQQNQVMHLSGGWGKILHEQLDAPVLVEIQKHVQNRLENVWLPLFLASEQFAARQKIKVQMKDIAEELLLQKAEKKIGVWKPVESKWISSSCKIIAFRKALLNPVTSRQFQRFVALKGDLLENGLLFWQEVQKYKDLCHSHCDESVIQKKITTIINCFINSSIPPALQIDIPVEQAQKIIEHRKELGPYVFREAQMTIFGVLFKFWPQFCEFRKNLTDENIMSVLERRQEYNKQKKKLAVLEDEKSGKDGIKQYANTSVPAIKTALLSDSFLGLQPYGRQPTWCYSKYIEALEQERILLKIQEELEKKLFAGLQPLTNFKASSSTMSLKKNMSAHSSQK
B7: NDNL2 (protein, UniProt Q96MG7 1-304)
chain: MLQKPRNRGRSGGQAERDRDWSHSGNPGASRAGEDARVLRDGFAEEAPSTSRGPGGSQGSQGPSPQGARRAQAAPAVGPRSQKQLELKVSELVQFLLIKDQKKIPIKRADILKHVIGDYKDIFPDLFKRAAERLQYVFGYKLVELEPKSNTYILINTLEPVEEDAEMRGDQGTPTTGLLMIVLGLIFMKGNTIKETEAWDFLRRLGVYPTKKHLIFGDPKKLITEDFVRQRYLEYRRIPHTDPVDYEFQWGPRTNLETSKMKVLKFVAKVHNQDPKDWPAQYCEALADEENRARPQPSGPAPSS
B8: DMPK (protein, UniProt Q09013 1-629)
chain: MSAEVRLRRLQQLVLDPGFLGLEPLLDLLLGVHQELGASELAQDKYVADFLQWAEPIVVRLKEVRLQRDDFEILKVIGRGAFSEVAVVKMKQTGQVYAMKIMNKWDMLKRGEVSCFREERDVLVNGDRRWITQLHFAFQDENYLYLVMEYYVGGDLLTLLSKFGERIPAEMARFYLAEIVMAIDSVHRLGYVHRDIKPDNILLDRCGHIRLADFGSCLKLRADGTVRSLVAVGTPDYLSPEILQAVGGGPGTGSYGPECDWWALGVFAYEMFYGQTPFYADSTAETYGKIVHYKEHLSLPLVDEGVPEEARDFIQRLLCPPETRLGRGGAGDFRTHPFFFGLDWDGLRDSVPPFTPDFEGATDTCNFDLVEDGLTAMVSGGGETLSDIREGAPLGVHLPFVGYSYSCMALRDSEVPGPTPMELEAEQLLEPHVQAPSLEPSVSPQDETAEVAVPAAVPAAEAEAEVTLRELQEALEEEVLTRQSLSREMEAIRTDNQNFASQLREAEARNRDLEAHVRQLQERMELLQAEGATAVTGVPSPRATDPPSHLDGPPAVAVGQCPLVGPGPMHRRHLLLPARVPRPGLSEALSLLLFAVVLSRAAALGCIGLVAHAGQLTAVWRRPGAARAP
B9: RAB11FIP3 (protein, UniProt O75154 1-756)
chain: MASAPPASPPGSEPPGPDPEPGGPDGPGAAQLAPGPAELRLGAPVGGPDPQSPGLDEPAPGAAADGGARWSAGPAPGLEGGPRDPGPSAPPPRSGPRGQLASPDAPGPGPRSEAPLPELDPLFSWTEEPEECGPASCPESAPFRLQGSSSSHRARGEVDVFSPFPAPTAGELALEQGPGSPPQPSDLSQTHPLPSEPVGSQEDGPRLRAVFDALDGDGDGFVRIEDFIQFATVYGAEQVKDLTKYLDPSGLGVISFEDFYQGITAIRNGDPDGQCYGGVASAQDEEPLACPDEFDDFVTYEANEVTDSAYMGSESTYSECETFTDEDTSTLVHPELQPEGDADSAGGSAVPSECLDAMEEPDHGALLLLPGRPHPHGQSVITVIGGEEHFEDYGEGSEAELSPETLCNGQLGCSDPAFLTPSPTKRLSSKKVARYLHQSGALTMEALEDPSPELMEGPEEDIADKVVFLERRVLELEKDTAATGEQHSRLRQENLQLVHRANALEEQLKEQELRACEMVLEETRRQKELLCKMEREKSIEIENLQTRLQQLDEENSELRSCTPCLKANIERLEEEKQKLLDEIESLTLRLSEEQENKRRMGDRLSHERHQFQRDKEATQELIEDLRKQLEHLQLLKLEAEQRRGRSSSMGLQEYHSRARESELEQEVRRLKQDNRNLKEQNEELNGQIITLSIQGAKSLFSTAFSESLAAEISSVSRDELMEAIQKQEEINFRLQDYIDRIIVAIMETNPSILEVK

biological target: matrix metalloproteinase 28 (MMP28) (human (endogenous in AsPC-1 and BxPC-3)) (UniProt Q9H239); experiment: affinity purification with mass spectrometry; BxPC-3 whole-cell lysate (enhanced RIPA buffer) incubated with MMP28 antibody or IgG control at 4 °C overnight, protein A/G agarose 3 h, five RIPA washes; LC-MS/MS; top 30 candidates listed

| binding | Binder |
| --- | --- |
| binds | B1 |
| binds | B2 |
| binds | B3 |
| binds | B4 |
| binds | B5 |
| binds | B6 |
| binds | B7 |
| binds | B8 |
| binds | B9 |

No constants are given. Whether binding was seen depends on the method and setting. In cells and extracts the contact can be indirect. These calls come from enrichment with a bait or labelling near it, and not all partners need be listed.
